Laboratory results from publication PMC11176256.
Residue numbers refer to the chain shown, from its start. No constants are given. Whether binding was seen depends on the method and setting. In cells and extracts the contact can be indirect. Some entries that bind do so weakly or less than the wild type. Where a sequence is shown, tags or fusion partners need not be part of it. Each block holds one molecule with its values, some of them ahead of it.

Chains of the proteins cited; added tags and fusions are not shown.
UniProt O00560: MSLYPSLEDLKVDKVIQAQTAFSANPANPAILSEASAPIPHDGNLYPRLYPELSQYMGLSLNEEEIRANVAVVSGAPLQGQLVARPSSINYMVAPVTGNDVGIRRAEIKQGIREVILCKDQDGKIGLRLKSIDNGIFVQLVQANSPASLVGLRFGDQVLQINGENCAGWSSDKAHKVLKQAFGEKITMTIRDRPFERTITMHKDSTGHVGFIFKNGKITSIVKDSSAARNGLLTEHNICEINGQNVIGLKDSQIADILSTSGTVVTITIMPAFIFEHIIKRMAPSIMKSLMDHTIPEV

Experiments:
Experiment in all cases: co-IP; 293FT cells cotransfected with TLR7 or TLR8 and V5-tagged UNC93B1 WT or variants (pcDNA 3.1); lysis in 50 mM Tris pH 7.4, 150 mM NaCl, 0.5% NP-40, 5 mM EDTA; V5-Trap agarose beads overnight at 4°C; western blot
[1] = molecular target: T1, V5-tagged human WT UNC93B1 (pcDNA 3.1, in 293FT cells) (human) (UniProt Q9H1C4)
T1 sequence: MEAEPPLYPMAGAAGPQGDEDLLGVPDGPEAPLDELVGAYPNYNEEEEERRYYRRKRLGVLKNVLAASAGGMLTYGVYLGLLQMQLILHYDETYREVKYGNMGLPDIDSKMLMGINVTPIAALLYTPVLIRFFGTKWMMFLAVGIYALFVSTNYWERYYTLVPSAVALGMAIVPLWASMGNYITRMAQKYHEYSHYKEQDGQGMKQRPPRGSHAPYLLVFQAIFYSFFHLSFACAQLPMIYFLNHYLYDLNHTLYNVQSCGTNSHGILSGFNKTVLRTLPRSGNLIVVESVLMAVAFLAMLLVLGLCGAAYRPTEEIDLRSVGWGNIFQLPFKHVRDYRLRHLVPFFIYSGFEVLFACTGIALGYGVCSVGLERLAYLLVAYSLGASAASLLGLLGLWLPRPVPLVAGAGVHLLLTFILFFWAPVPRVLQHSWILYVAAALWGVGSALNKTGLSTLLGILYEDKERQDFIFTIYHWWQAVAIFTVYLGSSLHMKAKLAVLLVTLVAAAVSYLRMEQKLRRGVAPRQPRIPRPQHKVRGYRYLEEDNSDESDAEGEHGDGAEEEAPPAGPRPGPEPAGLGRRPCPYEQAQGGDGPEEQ

[2] = molecular target: T2, V5-tagged UNC93B1 R525P (pcDNA 3.1, in 293FT cells) (human) (UniProt Q9H1C4)
T2 sequence: T1 sequence with R525P

[3] = molecular target: T3, V5-tagged UNC93B1 R466S (pcDNA 3.1, in 293FT cells) (human) (UniProt Q9H1C4)
T3 sequence: T1 sequence with R466S

[4] = molecular target: T4, V5-tagged UNC93B1 L330R (pcDNA 3.1, in 293FT cells) (human) (UniProt Q9H1C4)
T4 sequence: T1 sequence with L330R

binding [1]: no binding
Molecule: syntenin-1 (from UniProt O00560 1-298)

binding [2]: binds | binding [3]: binds | binding [1]: binds | binding [4]: binds
B1: TLR7 (transfected in 293FT cells) (receptor, UniProt Q9NYK1 27-1049)
chain: ARWFPKTLPCDVTLDVPKNHVIVDCTDKHLTEIPGGIPTNTTNLTLTINHIPDISPASFHRLDHLVEIDFRCNCVPIPLGSKNNMCIKRLQIKPRSFSGLTYLKSLYLDGNQLLEIPQGLPPSLQLLSLEANNIFSIRKENLTELANIEILYLGQNCYYRNPCYVSYSIEKDAFLNLTKLKVLSLKDNNVTAVPTVLPSTLTELYLYNNMIAKIQEDDFNNLNQLQILDLSGNCPRCYNAPFPCAPCKNNSPLQIPVNAFDALTELKVLRLHSNSLQHVPPRWFKNINKLQELDLSQNFLAKEIGDAKFLHFLPSLIQLDLSFNFELQVYRASMNLSQAFSSLKSLKILRIRGYVFKELKSFNLSPLHNLQNLEVLDLGTNFIKIANLSMFKQFKRLKVIDLSVNKISPSGDSSEVGFCSNARTSVESYEPQVLEQLHYFRYDKYARSCRFKNKEASFMSVNESCYKYGQTLDLSKNSIFFVKSSDFQHLSFLKCLNLSGNLISQTLNGSEFQPLAELRYLDFSNNRLDLLHSTAFEELHKLEVLDISSNSHYFQSEGITHMLNFTKNLKVLQKLMMNDNDISSSTSRTMESESLRTLEFRGNHLDVLWREGDNRYLQLFKNLLKLEELDISKNSLSFLPSGVFDGMPPNLKNLSLAKNGLKSFSWKKLQCLKNLETLDLSHNQLTTVPERLSNCSRSLKNLILKNNQIRSLTKYFLQDAFQLRYLDLSSNKIQMIQKTSFPENVLNNLKMLLLHHNRFLCTCDAVWFVWWVNHTEVTIPYLATDVTCVGPGAHKGQSVISLDLYTCELDLTNLILFSLSISVSLFLMVMMTASHLYFWDVWYIYHFCKAKIKGYQRLISPDCCYDAFIVYDTKDPAVTEWVLAELVAKLEDPREKHFNLCLEERDWLPGQPVLENLSQSIQLSKKTVFVMTDKYAKTENFKIAFYLSHQRLMDEKVDVIILIFLEKPFQKSKFLQLRKRLCGSSVLEWPTNPQAHPYFWQCLKNALATDNHVAYSQVFKETV

binding [2]: binds | binding [3]: binds | binding [1]: binds | binding [4]: binds
B2: TLR8 (transfected in 293FT cells) (receptor, UniProt Q9NR97 27-1041)
chain: EENFSRSYPCDEKKQNDSVIAECSNRRLQEVPQTVGKYVTELDLSDNFITHITNESFQGLQNLTKINLNHNPNVQHQNGNPGIQSNGLNITDGAFLNLKNLRELLLEDNQLPQIPSGLPESLTELSLIQNNIYNITKEGISRLINLKNLYLAWNCYFNKVCEKTNIEDGVFETLTNLELLSLSFNSLSHVPPKLPSSLRKLFLSNTQIKYISEEDFKGLINLTLLDLSGNCPRCFNAPFPCVPCDGGASINIDRFAFQNLTQLRYLNLSSTSLRKINAAWFKNMPHLKVLDLEFNYLVGEIASGAFLTMLPRLEILDLSFNYIKGSYPQHINISRNFSKLLSLRALHLRGYVFQELREDDFQPLMQLPNLSTINLGINFIKQIDFKLFQNFSNLEIIYLSENRISPLVKDTRQSYANSSSFQRHIRKRRSTDFEFDPHSNFYHFTRPLIKPQCAAYGKALDLSLNSIFFIGPNQFENLPDIACLNLSANSNAQVLSGTEFSAIPHVKYLDLTNNRLDFDNASALTELSDLEVLDLSYNSHYFRIAGVTHHLEFIQNFTNLKVLNLSHNNIYTLTDKYNLESKSLVELVFSGNRLDILWNDDDNRYISIFKGLKNLTRLDLSLNRLKHIPNEAFLNLPASLTELHINDNMLKFFNWTLLQQFPRLELLDLRGNKLLFLTDSLSDFTSSLRTLLLSHNRISHLPSGFLSEVSSLKHLDLSSNLLKTINKSALETKTTTKLSMLELHGNPFECTCDIGDFRRWMDEHLNVKIPRLVDVICASPGDQRGKSIVSLELTTCVSDVTAVILFFFTFFITTMVMLAALAHHLFYWDVWFIYNVCLAKVKGYRSLSTSQTFYDAYISYDTKDASVTDWVINELRYHLEESRDKNVLLCLEERDWDPGLAIIDNLMQSINQSKKTVFVLTKKYAKSWNFKTAFYLALQRLMDENMDVIIFILLEPVLQHSQYLRLRQRICKSSILQWPDNPKAEGLFWQTLRNVVLTENDSRYNNMYVDSIKQY
